# Assay results taken from publication PMC3706368.
# No constants are given. Whether binding was seen depends on the method and setting. A result given as binding can be weak or reduced; the word gives no strength.
# B1: truncated cdN protein without its N-terminal 44 amino acids (library cDNA clone) (domain or fragment, UniProt Q8TCD5 45-201)
# chain: LAREQYRALRPDLADKVASVYEAPGFFLDLEPIPGALDAVREMNDLPDTQVFICTSPLLKYHHCVGEKYRWVEQHLGPQFVERIILTRDKTVVLGDLLIDDKDTVRGQEETPSWEHILFTCCHNRHLVLPPTRRRLLSWSDNWREILDSKRGAAQRE
# B2: a.a. 846 to 1008 of ELKS-δ protein (domain or fragment, UniProt Q8IUD2-3 846-1008)
# chain: VEELLMAMEKVKQELESMKAKLSSTQQSLAEKETHLTNLRAERRKHLEEVLEMKQEALLAAISEKDANIALLELSSSKKKTQEEVAALKREKDRLVQQLKQQTQNRMKLMADNYEDDHFKSSHSNQTNHKPSPDQIIQPLLELDQNRSKLKLYIGHLTTLCHD
# Tests used:
# [1] = target: HCV NS3 protein (full-length, from a.a. 1 to 631) (hepatitis C virus (HCV-H isolate)); assay: two-hybrid; library screen in yeast (Clontech system); NS3 as bait against a human fetal liver cDNA library HL4029AH; 1x10^6 transformants
# [2] = target: HCV NS3 protease domain (from a.a. 1 to a.a. 208) (hepatitis C virus (HCV-H isolate)); assay: two-hybrid; direct test of defined constructs in yeast (deletion mapping); growth on YEPD without tryptophan, leucine and histidine
Binder,binding [1],binding [2]
B1,binds,
"EAPGFFLDLEPIPGALDAVREMNDLPDTQVFICTSPLLKYHHCV (domain or fragment, UniProt Q8TCD5 66-109) [cdN protein from a.a. 66 to a.a. 109]",,binds
B2,,binds
